Data: PubChem BioAssay AID588463 (National Center for Advancing Translational Sciences (NCATS), 2011)
Among all 1,200 compounds or so, about 15 (1%) were called active. Another 7% or so got no clear call; they are omitted. Calls come from the whole dose curve; as a rule, active = well fitted activation curve with a large enough effect; inconclusive = small, poorly fitted or top-dose-only effect; inactive = flat fitted curve, though single readings scatter. The list shows a part of the results.

Each molecule was assayed against Beta-2 adrenergic receptor (Homo sapiens) (UniProt P07550) (assay: qHTS assay of beta-arrestin-biased ligands of beta2-adrenergic receptor: Hit Validation). Conditions: cell-based beta-arrestin recruitment to beta2AR; Potency: activation; series mostly up to 46.1 µM; activation: at the top concentration.
Source text: The concept of biased agonism is an emerging concept of molecular pharmacology which proposes that seven transmembrane receptors (7TMRs) or G protein-coupled receptors (GPCRs), exist in multiple signaling conformations and complexes and that ligands (either agonists or antagonists) can induce signaling biased responses for distinct signal transduction cascades.
Furthermore, accumulating evidence over the last decade has drawn attention to a novel function of beta-arrestins as signal transducers that scaffold various signaling molecules upon activation of 7TMRs. […] This beta-arrestin-biased signaling presumably leads to distinct physiological outcomes from those by G protein activation.
Additionally, the active receptor conformations which […] on this beta-arrestin signaling are likely different from those activating G protein signaling
The goal of this screening project will be to discover and optimize novel beta-arrestin-biased ligands for beta2-AR signaling. A luminescent cell-based assay for beta2-AR-mediated agonism, known as the Tango assay, has been validated in which ligand binding of a recombinant beta2-AR and subsequent recruitment of a recombinant beta-arrestin lead to the release of the transcriptional activator tTA, which upregulates transcription of a tTA-responsive luciferase gene.
NIH Molecular Libraries Probe Production Network [MLPCN]
NIH Chemical Genomics Center [NCGC]
PI: Bryan Roth (UNC) and Bob Lefkowitz (Duke)
NCGC Assay Protocol Summary:
Tango cells were dispensed into white, solid, tissue-culture-treated 1536-well plates at 1500 cells/well in DMEM, containing 1% fetal bovine serum (FBS). Then, 23 nL of compounds or DMSO were delivered to each well using a pin tool. Plates were incubated at 37 degrees C, 5% CO2 for 18 hr. Then 2.5 uL luminescent substrate mix (in-house prepared: 150 mM Tris-Cl, pH 7.6, 3 mM MgCl2, 1% Triton X-100, 5 mM DTT, 0.5 mM CoA, 0.15 mM ATP, 0.44 mM D-luciferin, final concentrations) was added to each well. Plates were then incubated for 15 minutes at room temperature, and subsequently measured on a ViewLux plate reader for luminescent signal using a clear filter with a 10 second exposure and 2x binning. The %Activity was determined from the corrected luminescence values.
Concentration-response curves were fitted to the signals arising from the resulting luminescence. The concentration-effect curves were then classified based on curve quality (r2), response magnitude and degree of measured activity, and compounds were subsequently categorized based on their curve class.
Keywords: biased agonism, beta2-AR, beta-arrestin, GPCR, 7TMR, Tango, luminescence, MLSMR, MLPCN, NIH Roadmap, qHTS, NCGC
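Note: plate controls were DMSO for no effect and maximal isoproterenol or metaproterenol response for full effect.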

activation, inactive:
O=[N+]([O-])c1ccc(C[n+]2cccc3ccc4cccnc4c32)cc1 -1.22%
Cc1ccc(Cn2nnc3c(=O)n(CC(=O)NCC4CCCO4)cnc32)cc1 (configuration not stated) -1.39%
CCc1cc2c(=O)c(-c3ccc4c(c3)OCCO4)coc2c(CN2CCCCC2C)c1O (configuration not stated) -0.531%
COc1ccc2c(C)nc(Nc3nc(C)c(C)c(=O)[nH]3)nc2c1 0.271%
O=C(NC(=S)N1CCN(Cc2ccccc2)CC1)c1ccco1 -1.8%
Cc1ccc(NC(=O)COC(=O)CN2C(=O)COc3ccccc32)cc1 -3.23%
CN1CCN(C(c2ccccn2)c2cc(Cl)c3cccnc3c2O)CC1 (configuration not stated) -2.19%
COc1ccc(NC(=O)c2cc(S(=O)(=O)N3CCc4ccccc43)cn2C)c(OC)c1 -3.34%
CCOc1ccccc1N=Nc1c(C)[nH]n(C(N)=S)c1=O -1.78%
Nc1c(Cl)ncnc1N/N=C/c1ccc2ccccc2n1 0.824%
CC1CCCN(C(=O)Cn2nnc(-c3ccc(F)cc3)n2)C1 (configuration not stated) -0.544%
COCCNC(=S)N/N=C(\C)c1ccc(Cl)c(Cl)c1 -1.6%
CCCCOc1ccc(C(O)(CCC)CCN2CCOCC2)cc1 (configuration not stated) -1.83%
CC[n+]1c(/C=C/N(C)c2ccccc2)oc2ccc(Cl)cc21 -2.68%
OC(C#Cc1ccccn1)c1cccs1 (configuration not stated) -0.841%
Cc1cccc(NC(=S)NNC(=O)CCn2cc(C)cn2)c1 -0.779%
COc1cc([N+](=O)[O-])c2nccnc2c1 -3.5%
O=C(Oc1cccc2cccnc12)c1ccc(N2C(=O)C3C4CCC(C4)C3C2=O)cc1 (configuration not stated) -7.3%
CCOc1ccc(/C=N/NC(=O)CN2CCCCC2)cc1OCC -1.64%
COc1cc(/C=N/NC(=O)c2cncc(Br)c2)cc([N+](=O)[O-])c1O 1.55%
O=C(O)CCc1ccc(-c2cccs2)o1 -10.8%
CN1CCN(C(=S)NC(=O)c2ccc(Br)cc2)CC1 -0.998%
O=C(NCC1CCCO1)c1ccc(CS(=O)(=O)c2ccc(Br)cc2)o1 (configuration not stated) -2.45%
S=C(NN=C1CCN(Cc2ccccc2)CC1)NC1CCCCC1 -2.86%
CNC(=S)N/N=C(\C)c1ccc(N2CCOCC2)cc1 -1.84%
O=C1CC(c2ccco2)CC2=C1C(c1ccccc1)n1nc(C(F)(F)F)nc1N2 (configuration not stated) 0.0396%
S=C(NCc1ccco1)Nc1ccccn1 -2.14%
COC(=O)c1c(/N=C/N(C)C)sc2c1CCN(c1ncc(C(F)(F)F)cc1Cl)C2 -3.04%
COc1cccc(/C=N/NC(=S)Nc2cccnc2)c1 -3.27%
Cc1cccc(NC(=S)NC(=O)c2cccs2)n1 -2.07%
NC(=S)N/N=C1\CCOc2ccc(F)cc21 -1.4%
COc1ccc(Oc2nc(-c3ccncc3)nc3ccccc23)cc1 -2.03%
Cc1cccc(NC(=O)CSc2nnnn2-c2cccnc2)c1 -1.67%
Cc1ccc2c(c1)[C@H]1[C@H](CO2)[C@H](c2ccccc2)[C@]2(C)C(=O)Nc3ccccc3C(=O)N12 -1.64%
CCOc1ccccc1CNc1ccc(O)cc1 -1.41%
Oc1[nH]c2ccc(Br)cc2c1N=NC(=S)NCC1CCCO1 (configuration not stated) -2.12%
C=CCNC(=S)N/N=C(\C)c1cccc(OC)c1 -1.3%
COc1ccc(NC(=S)N2CCc3ccccc3C2)cc1 -0.466%
CN1CCN(Cc2cc(COCc3ccccc3)c3cccnc3c2O)CC1 -0.456%
CCOC(=O)C1(O)CC(C)=NN1C(=O)c1cccc(Cl)c1 (configuration not stated) -1.46%
CCc1cc2c(SCC(=O)Nc3ccc(Cl)cn3)ncnc2s1 -1.91%
Cc1ccc(/C=N/n2cc(-c3ccccc3)[nH]c2=S)s1 4.44%
O=C1CCCC2=C1C(c1ccc3c(c1)OCO3)c1c([nH]n(-c3ccccc3)c1=O)N2 (configuration not stated) -0.803%
COc1cccc(NC(=S)N/N=C2\CC(C)(C)Oc3ccc(O)cc32)c1 -2.24%
CCN(CC)C(=S)SCC(=O)c1ccc(F)cc1 -1.73%
CCCCOC(=O)c1cc(Cl)c(O)c(OC)c1 -2.62%
CN(CC(=O)Nc1ccccc1Cl)C(=O)COC(=O)c1nc(Cl)c(Cl)c(Cl)c1Cl -4.27%
CNC(=S)N/N=C1\CC(c2ccccc2)Oc2ccccc21 (configuration not stated) -2.26%
C=CCNC(=S)N/N=C(\C)c1cccnc1 -2.35%
Cc1ccc(NC(=O)C(Nc2cccc(C)c2)c2ccccc2)cc1 (configuration not stated) 0.413%
CCOc1ccc(/C=N/n2cc(-c3ccccc3)[nH]c2=S)cc1 -4.93%
CCCC(=O)N(c1ccc(F)cc1)C1C=CS(=O)(=O)C1 (configuration not stated) -3.49%
COc1ccc(/C=C/c2ccc3cccc(O)c3n2)c(OC)c1OC 6.27%
Cc1ccc(SCC(=O)NC(=O)NCc2ccccc2)c(C)c1 -0.256%
CN(C)CCn1c2c(c(SCC(=O)NCc3ccccc3)nc1=O)CCCC2 -5.86%
Fc1ccc(NC(=S)N/N=C/c2ccc(F)c(F)c2)cc1 -2.99%
CCCCn1c(N)c(N(CCC(C)C)C(=O)CSc2nncn2-c2ccccc2)c(=O)[nH]c1=O -0.737%
COc1ccccc1NC(=O)COC(=O)c1ccc2ccccc2n1 -2.91%
Cc1cc(N2Cc3ccccc3C2)ccc1C=O -1.41%
CCCCC(=O)N1CCCC(c2nc(-c3cccc(OC)c3)no2)C1 (configuration not stated) -1.86%
S=c1ccc2ccccc2[nH]1 -2.65%
O=C1c2cccc3c([N+](=O)[O-])ccc(c23)C(=O)N1c1ccccn1 -3.16%
C[C@H](NC(=O)c1ccccc1)C(=O)OCC(=O)Nc1ccc2c(c1)OCO2 -2.24%
CCOC(=O)C1CCN(C(=O)c2ccccc2NS(=O)(=O)c2ccc(F)c(F)c2)CC1 -3.57%
CNC(=S)N/N=C/c1ccc(N2CCOCC2)s1 -2.87%
CC(C)Cn1c(Cc2ccccc2)n[nH]c1=S -4.23%
COc1ccc(NC(=O)Nc2sc(=S)n(C)c2C)cc1 -2.08%
O=C(CSc1nccn1Cc1ccc(F)cc1)NC1CCCC1 -2.69%
COC(=O)c1ccc(C(=O)OC)c(NC(=O)CSc2cccc[n+]2[O-])c1 -1.21%
Cc1ccc(N/C=C/C(=O)c2ccccc2)cc1C -1.95%
O=C(Oc1c(CN2CCOCC2)cc(Cl)c2cccnc12)c1ccccc1 2.56%
COc1ccc(CCn2c(N)c(C(=O)NCc3ccco3)c3nc4ccccc4nc32)cc1 -2.04%
O=C(NC(=S)Nc1cccnc1Cl)c1ccc(Cl)cc1 -2.22%
COc1ccc(NC(=S)Nc2ccccn2)c(OC)c1 -1.86%
CCCNC(=O)Cn1cnc2sc(C(=O)Nc3ccc4c(c3)OCO4)c(C)c2c1=O -0.332%
CCN1C(=O)C(CC(=O)Nc2ccc(OC)cc2)N(CCN2CCOCC2)C1=S (configuration not stated) -0.784%
COc1ccc(C2C(C#N)=C(N)Oc3cc(N)ccc32)cc1OC (configuration not stated) -1.87%
Cc1cc(C)nc(S/C=C/C(=O)c2ccccc2F)n1 -2.31%
COc1ccc(Nc2cc(Nc3cccc(OC)c3)ncn2)cc1 -2.11%
CN(C)/C=N/S(=O)(=O)c1ccc(Cl)c(Cl)c1 -2.48%
COCCNC(=S)NN=C1CCCCC1 -1.74%
CC1CCN(c2c(NCc3ccc(C(=O)NCCc4ccc(Cl)cc4)cc3)c(=O)c2=O)CC1 -2.29%
CCN1CCN(C(=S)NC(=O)c2cccc(Br)c2)CC1 -2.87%
N=C1SCC(=O)N1c1ncc(Cc2ccccc2Cl)s1 -2.74%
Cc1ccc(NC(=O)CSc2cccc3cccnc23)c(C)c1 -3.6%
O=[N+]([O-])c1ccc(Sc2cccc3cccnc23)c([N+](=O)[O-])c1 -2.15%
NC(=S)Nc1nc2ccccc2s1 -1.8%
CCOc1ccc(NC(=S)NC(=O)c2ccco2)cc1 -0.636%
CCCNC(=O)COc1ccc2c(=O)c(Oc3ccccc3F)coc2c1 -3.11%
Oc1ccc(N=Cc2ccc(-c3cccs3)s2)cc1 -4.12%
Cc1ccc(-c2csc3nc[nH]c(=S)c23)cc1 -2.6%
CCOC(=O)c1c(C)[nH]c(N=Nc2ccc(C)cc2C)c1C -10.2%
O=C1C(Cc2ccc(Br)cc2)SC(=Nc2ccccc2)N1c1ccccc1 (configuration not stated) -1.47%
C=CC[n+]1c(-c2ccc(OC)c(OC)c2)csc1NNC(=O)Nc1ccccc1 -3.45%
Cc1ccc(/C(N)=N/OC(=O)c2ccc(Cl)cc2Cl)cc1 -2.63%
NNC(=S)NCc1ccco1 -2.62%
CC(=O)CC1OC(=O)C(Br)=C1NCc1ccccc1 (configuration not stated) -1.18%
COc1ccc(C(=O)Nc2ccc(OCc3ccccc3)cc2)cc1[N+](=O)[O-] -1.39%
Cc1cccc(NC(=O)c2cccs2)n1 -2.92%
NC(=S)n1[nH]c(-c2ccc([N+](=O)[O-])cc2)c(N=Nc2ccc(Cl)cc2)c1=O -4.16%
Cc1ccc2nc(C)c(C(=O)N/N=C/c3cccs3)n2c1 -1.53%
Cn1c(/C=C/c2ccc([N+](=O)[O-])o2)nc2ccccc2c1=O -2.87%
NNc1ccc(Cl)nn1 -2.76%
S=c1nc(-c2ccccc2)[nH]c2ccccc12 -2.34%
COc1ccc(NC(=S)NC(=O)c2ccc3c(c2)OCCO3)cc1 -3.42%
Cc1ccc(N(Cc2cc(=O)[nH]c3ccccc23)C(=O)c2ccco2)cc1 -1.04%
O=C(CNC(=O)c1ccccc1F)Nc1ccc2c(c1)OCO2 -3.21%
CCOC(=O)CSc1cccc2cccnc12 -2.99%
COc1ccc2c(C)nc(Nc3nc(C)cc(C)n3)nc2c1 -2.67%
C/C(=N/OC(=O)c1c(-c2c(F)cccc2Cl)noc1C)c1cnccn1 -2.15%
Cc1cc(C)c(NC(=S)NC(NC(=O)c2ccccc2)C(Cl)(Cl)Cl)c(C)c1 (configuration not stated) 0.912%
Cc1cc(-c2n[nH]c(=S)n2/N=C/C(Cl)=C/c2ccccc2)n[nH]1 -3.11%
O=C(O)c1ccc(Oc2cc(Oc3ccc(C(=O)O)cc3)cc([N+](=O)[O-])c2)cc1 -3.75%
CC(C)c1ccc(NC(=S)Nc2ccc3cn[nH]c3c2)cc1 -3.41%
OCCN1CCN(c2ncnc3ccc(Br)cc23)CC1 -4.66%
Nc1c(N(CCC2=CCCCC2)C(=O)Cc2ccc(F)cc2)c(=O)[nH]c(=O)n1Cc1ccccc1 -0.0404%
O=C(O)c1ccccc1C(=O)Nc1ccc(-c2csc(-c3ccccc3)n2)cc1 0.433%

Arranged by SMILES length (ascending): 5 of the compounds above.
activation, inactive:
NC(=S)Nc1nc2ccccc2s1 -1.8%
COc1cc([N+](=O)[O-])c2nccnc2c1 -3.5%
CCOc1ccccc1N=Nc1c(C)[nH]n(C(N)=S)c1=O -1.78%
C=CC[n+]1c(-c2ccc(OC)c(OC)c2)csc1NNC(=O)Nc1ccccc1 -3.45%
COc1cc(/C=N/NC(=O)c2cncc(Br)c2)cc([N+](=O)[O-])c1O 1.55%

Already shown: an excerpt of the list.
activation, inactive:
Oc1[nH]c2ccc(Br)cc2c1N=NC(=S)NCC1CCCO1 (configuration not stated) -2.12%
C=CCNC(=S)N/N=C(\C)c1cccc(OC)c1 -1.3%
COc1ccc(NC(=S)N2CCc3ccccc3C2)cc1 -0.466%
CN1CCN(Cc2cc(COCc3ccccc3)c3cccnc3c2O)CC1 -0.456%
